{"source": "PubChem BioAssay AID1259308 (NCATS, 2017)", "aim": "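Genes whose loss raises luciferase production in HEK293 cells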 (primary screen)", "cell system": "human HEK293 embryonic kidney cells stably expressing firefly luciferase (HEK-CMV-Luc2-Hygro)", "reagents": "single siRNA against human genes, 0.8 pmol siRNA per well", "timing": "72 h", "read-out": "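Luciferase light (ONE-Glo) measured on one replicate plate set and viability (CellTiter-Glo) on the other, scaled to a negative control siRNA, with robust z-scores and luciferase per cell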", "reading the numbers": "total luciferase, z-score and total luciferase, % of control: higher = more reporter protein produced", "active means": "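Active when the median/MAD z-score for overall luciferase is greater than 3; a gene was taken forward for validation with new siRNAs if at least two of its three siRNAs passed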", "calls": "active = raised luciferase; inactive = no rise", "note": "In all, the deposit lists about 59,000 reagents; below is a random part of them. Of all reagents, about 1,510 (2.6%) got an active call. 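Calls use total luciferase alone and ignore viability, so some active siRNAs may act by altering cell number.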 A number with no mark means an inactive call. The numbers tell different reagents against one gene apart. Further read-outs or replicates are left out here."}
{"target gene": "SCAMP4", "reagent": 1, "total luciferase, z-score": 0.271, "total luciferase, % of control": 87.3}
{"target gene": "SCAMP4", "reagent": 2, "total luciferase, z-score": 0.861, "total luciferase, % of control": 99}
{"target gene": "SCAMP4", "reagent": 3, "total luciferase, z-score": -2.26, "total luciferase, % of control": 36.9}
{"target gene": "SEPTIN12", "reagent": 1, "total luciferase, z-score": -0.472, "total luciferase, % of control": 72.5}
{"target gene": "SEPTIN12", "reagent": 2, "total luciferase, z-score": -2.05, "total luciferase, % of control": 41.1}
{"target gene": "SEPTIN12", "reagent": 3, "total luciferase, z-score": -2.02, "total luciferase, % of control": 41.7}
{"target gene": "MYO3B", "reagent": 1, "total luciferase, z-score": -0.354, "total luciferase, % of control": 74.9}
{"target gene": "MYO3B", "reagent": 2, "total luciferase, z-score": 2, "total luciferase, % of control": 122}
{"target gene": "MYO3B", "reagent": 3, "total luciferase, z-score": 1.41, "total luciferase, % of control": 110}
{"target gene": "KBTBD7", "reagent": 1, "total luciferase, z-score": 0.312, "total luciferase, % of control": 88.1}
{"target gene": "KBTBD7", "reagent": 2, "total luciferase, z-score": -0.298, "total luciferase, % of control": 76}
{"target gene": "KBTBD7", "reagent": 3, "total luciferase, z-score": 1.42, "total luciferase, % of control": 110}

Already shown: 2 of the entries above.
{"target gene": "SEPTIN12", "reagent": 1, "total luciferase, z-score": -0.472, "total luciferase, % of control": 72.5}
{"target gene": "SEPTIN12", "reagent": 2, "total luciferase, z-score": -2.05, "total luciferase, % of control": 41.1}
